{"source": "patent US20120302629A1", "about": "“BIOMARKERS FOR GOSSYPOL CHEMOTHERAPY AND METHODS OF TREATING DISEASE” (THE REGENTS OF THE UNIVERSITY OF MICHIGAN, priority 2009, published 2012)", "tested_on": "5 breast (MDA-MB-231, MDA-MB-436, MDA-MB-468, BT-549 and MCF-7) and 3 prostate (22Rv1, DU145 and LNCaP) cancer cell lines", "experiment": "Western blot in 8 additional cancer cell lines", "format": "cell-based, human", "settings": "treatment for 24 h", "experimental": "Western blot assay: Proteins were harvested in RIPA buffer, then electrophoresed on 4-20% gradient SDS-PAGE gels (Invitrogen, Grand Island, N.Y.) and transferred to PVDF membranes. The membranes were blocked in 5% milk and then incubated with specific primary antibody, followed by secondary antibody. The signals were visualized with the chemiluminescent HRP antibody detection reagent (Deville Scientific, Metuchen, N.J.).", "note": "At least one compound was matched to its structure with a doubt left."}
{"smiles": "Cc1cc2c(C(C)C)c(O)c(O)c(C=O)c2c(O)c1-c1c(C)cc2c(C(C)C)c(O)c(O)c(C=O)c2c1O", "note": "[(−)-gossypol]", "values": [{"measurement": "concentration with upregulation of Puma", "value": "2.5 or 5 μM"}]}
